Experimental data as given in the supplement of paper PMC6411743.
± gives the standard deviation of the averaged measurements. Only a part is listed here, and it is no random draw.

The chains behind the UniProt entries cited, without tags or fusion partners. Where a name states a change or a piece, a line headed by the entry shows the natural chain unless it says otherwise.
UniProt Q9UNL4, whole entry: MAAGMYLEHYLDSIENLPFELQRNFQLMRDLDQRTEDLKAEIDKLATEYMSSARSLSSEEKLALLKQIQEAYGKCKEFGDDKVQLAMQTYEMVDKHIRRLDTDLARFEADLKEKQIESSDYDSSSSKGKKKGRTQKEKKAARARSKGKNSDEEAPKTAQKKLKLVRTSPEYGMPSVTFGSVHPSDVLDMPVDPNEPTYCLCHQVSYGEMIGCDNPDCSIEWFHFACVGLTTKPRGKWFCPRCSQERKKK
UniProt Q9UQ80: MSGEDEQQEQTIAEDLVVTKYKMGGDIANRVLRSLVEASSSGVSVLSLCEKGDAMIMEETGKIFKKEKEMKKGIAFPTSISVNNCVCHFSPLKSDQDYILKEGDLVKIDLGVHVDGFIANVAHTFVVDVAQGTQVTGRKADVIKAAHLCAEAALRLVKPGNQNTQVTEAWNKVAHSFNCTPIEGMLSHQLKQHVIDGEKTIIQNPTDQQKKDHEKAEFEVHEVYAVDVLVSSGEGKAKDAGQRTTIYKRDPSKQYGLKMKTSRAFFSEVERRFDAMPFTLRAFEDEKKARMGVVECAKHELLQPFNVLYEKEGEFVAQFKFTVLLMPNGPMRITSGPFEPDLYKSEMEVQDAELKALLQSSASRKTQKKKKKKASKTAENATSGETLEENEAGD
UniProt Q9UKA9: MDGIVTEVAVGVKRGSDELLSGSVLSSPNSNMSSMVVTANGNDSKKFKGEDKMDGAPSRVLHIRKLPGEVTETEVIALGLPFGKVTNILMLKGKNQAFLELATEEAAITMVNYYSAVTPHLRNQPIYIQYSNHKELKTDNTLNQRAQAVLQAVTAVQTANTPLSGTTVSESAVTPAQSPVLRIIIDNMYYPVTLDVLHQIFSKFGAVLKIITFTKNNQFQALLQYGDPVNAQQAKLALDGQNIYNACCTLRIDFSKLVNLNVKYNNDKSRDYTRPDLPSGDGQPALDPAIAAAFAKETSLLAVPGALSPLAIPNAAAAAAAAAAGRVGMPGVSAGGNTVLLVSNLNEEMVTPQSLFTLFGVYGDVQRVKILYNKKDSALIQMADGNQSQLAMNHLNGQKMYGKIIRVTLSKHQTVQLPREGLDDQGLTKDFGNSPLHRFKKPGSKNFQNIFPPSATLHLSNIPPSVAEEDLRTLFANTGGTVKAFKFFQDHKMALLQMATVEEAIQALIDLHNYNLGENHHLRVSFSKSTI
UniProt Q9UK61: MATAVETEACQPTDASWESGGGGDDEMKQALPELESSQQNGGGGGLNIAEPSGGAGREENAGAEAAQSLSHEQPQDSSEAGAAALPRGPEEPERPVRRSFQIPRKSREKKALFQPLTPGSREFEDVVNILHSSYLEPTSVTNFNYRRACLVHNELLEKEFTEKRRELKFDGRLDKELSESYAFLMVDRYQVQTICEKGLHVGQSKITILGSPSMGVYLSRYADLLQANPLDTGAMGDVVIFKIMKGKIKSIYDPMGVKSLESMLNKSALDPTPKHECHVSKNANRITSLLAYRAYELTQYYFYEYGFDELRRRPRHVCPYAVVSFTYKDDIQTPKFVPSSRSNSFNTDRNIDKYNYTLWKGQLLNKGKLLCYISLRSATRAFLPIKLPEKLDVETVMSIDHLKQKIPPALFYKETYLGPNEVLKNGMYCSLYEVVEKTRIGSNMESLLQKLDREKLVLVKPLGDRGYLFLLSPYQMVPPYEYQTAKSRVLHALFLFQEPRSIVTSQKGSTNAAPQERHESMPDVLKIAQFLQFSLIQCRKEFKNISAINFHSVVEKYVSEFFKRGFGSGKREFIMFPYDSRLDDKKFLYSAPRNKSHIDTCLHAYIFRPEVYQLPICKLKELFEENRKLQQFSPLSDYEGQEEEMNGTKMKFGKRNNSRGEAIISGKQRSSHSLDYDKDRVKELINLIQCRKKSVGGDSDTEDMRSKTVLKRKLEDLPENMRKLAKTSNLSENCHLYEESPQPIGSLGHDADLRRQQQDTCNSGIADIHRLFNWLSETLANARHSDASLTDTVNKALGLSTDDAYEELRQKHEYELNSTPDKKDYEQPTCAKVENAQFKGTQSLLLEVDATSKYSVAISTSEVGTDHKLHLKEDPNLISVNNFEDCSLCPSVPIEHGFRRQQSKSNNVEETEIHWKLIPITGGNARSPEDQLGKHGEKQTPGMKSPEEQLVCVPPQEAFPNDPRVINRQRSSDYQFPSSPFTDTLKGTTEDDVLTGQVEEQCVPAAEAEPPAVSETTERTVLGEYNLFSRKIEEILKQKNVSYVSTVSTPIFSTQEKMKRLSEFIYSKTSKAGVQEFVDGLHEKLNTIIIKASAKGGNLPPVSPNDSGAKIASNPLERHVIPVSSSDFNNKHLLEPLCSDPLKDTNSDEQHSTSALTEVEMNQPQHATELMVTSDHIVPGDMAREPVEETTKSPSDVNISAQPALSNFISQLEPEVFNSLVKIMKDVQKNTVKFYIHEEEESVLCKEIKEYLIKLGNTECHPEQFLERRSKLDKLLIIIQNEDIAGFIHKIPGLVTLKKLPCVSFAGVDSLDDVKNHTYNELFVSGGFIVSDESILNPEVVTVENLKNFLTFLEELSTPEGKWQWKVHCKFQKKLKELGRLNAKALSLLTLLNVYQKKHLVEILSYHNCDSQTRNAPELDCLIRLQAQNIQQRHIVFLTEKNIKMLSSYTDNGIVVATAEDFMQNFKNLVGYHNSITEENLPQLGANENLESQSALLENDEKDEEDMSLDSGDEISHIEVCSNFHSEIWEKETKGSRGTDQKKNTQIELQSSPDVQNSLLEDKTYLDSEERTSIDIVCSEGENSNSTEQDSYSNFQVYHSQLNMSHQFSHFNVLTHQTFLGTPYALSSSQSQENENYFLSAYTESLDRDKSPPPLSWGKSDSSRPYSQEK
UniProt Q9Y263: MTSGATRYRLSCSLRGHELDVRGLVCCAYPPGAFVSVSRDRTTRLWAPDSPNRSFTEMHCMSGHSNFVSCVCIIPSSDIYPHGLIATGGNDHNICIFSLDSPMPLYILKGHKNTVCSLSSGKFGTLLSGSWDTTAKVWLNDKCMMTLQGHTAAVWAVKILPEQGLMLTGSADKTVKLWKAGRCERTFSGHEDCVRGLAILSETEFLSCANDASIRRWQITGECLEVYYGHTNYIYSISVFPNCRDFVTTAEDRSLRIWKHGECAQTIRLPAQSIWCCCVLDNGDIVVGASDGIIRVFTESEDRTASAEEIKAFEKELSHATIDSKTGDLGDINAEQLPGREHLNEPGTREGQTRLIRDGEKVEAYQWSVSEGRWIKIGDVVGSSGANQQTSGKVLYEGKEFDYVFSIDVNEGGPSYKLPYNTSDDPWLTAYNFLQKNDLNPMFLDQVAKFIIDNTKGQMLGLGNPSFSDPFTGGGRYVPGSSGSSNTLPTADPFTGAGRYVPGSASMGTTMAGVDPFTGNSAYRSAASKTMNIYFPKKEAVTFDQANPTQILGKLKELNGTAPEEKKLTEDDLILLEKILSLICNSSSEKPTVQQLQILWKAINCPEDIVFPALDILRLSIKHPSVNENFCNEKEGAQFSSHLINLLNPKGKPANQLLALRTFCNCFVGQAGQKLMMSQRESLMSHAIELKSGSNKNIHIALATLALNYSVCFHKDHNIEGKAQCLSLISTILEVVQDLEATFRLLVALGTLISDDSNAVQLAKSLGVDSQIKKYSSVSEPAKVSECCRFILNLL
UniProt Q9UHQ9: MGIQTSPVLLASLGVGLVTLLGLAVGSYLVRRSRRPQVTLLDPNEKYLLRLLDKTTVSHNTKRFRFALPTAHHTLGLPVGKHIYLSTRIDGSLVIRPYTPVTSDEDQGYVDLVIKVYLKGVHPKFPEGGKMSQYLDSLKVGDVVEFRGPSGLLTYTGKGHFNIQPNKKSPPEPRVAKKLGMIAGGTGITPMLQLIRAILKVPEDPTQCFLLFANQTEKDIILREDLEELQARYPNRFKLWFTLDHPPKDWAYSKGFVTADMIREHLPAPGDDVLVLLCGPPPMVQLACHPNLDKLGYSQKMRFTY
UniProt Q9UK41: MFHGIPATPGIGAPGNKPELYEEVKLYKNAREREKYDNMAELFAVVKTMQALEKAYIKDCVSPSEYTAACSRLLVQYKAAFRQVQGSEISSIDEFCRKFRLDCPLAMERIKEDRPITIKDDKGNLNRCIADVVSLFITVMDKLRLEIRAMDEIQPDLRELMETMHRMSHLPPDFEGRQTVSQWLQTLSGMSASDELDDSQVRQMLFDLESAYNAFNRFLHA
UniProt Q9UEE9, whole entry: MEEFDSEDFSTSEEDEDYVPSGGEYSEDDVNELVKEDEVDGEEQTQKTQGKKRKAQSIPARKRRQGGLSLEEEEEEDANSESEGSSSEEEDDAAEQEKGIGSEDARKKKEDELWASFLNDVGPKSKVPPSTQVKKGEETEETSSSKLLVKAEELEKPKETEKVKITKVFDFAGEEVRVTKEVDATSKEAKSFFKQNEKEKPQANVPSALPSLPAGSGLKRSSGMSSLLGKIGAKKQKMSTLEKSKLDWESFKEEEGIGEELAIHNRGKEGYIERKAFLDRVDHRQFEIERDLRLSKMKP
UniProt Q9Y2I7: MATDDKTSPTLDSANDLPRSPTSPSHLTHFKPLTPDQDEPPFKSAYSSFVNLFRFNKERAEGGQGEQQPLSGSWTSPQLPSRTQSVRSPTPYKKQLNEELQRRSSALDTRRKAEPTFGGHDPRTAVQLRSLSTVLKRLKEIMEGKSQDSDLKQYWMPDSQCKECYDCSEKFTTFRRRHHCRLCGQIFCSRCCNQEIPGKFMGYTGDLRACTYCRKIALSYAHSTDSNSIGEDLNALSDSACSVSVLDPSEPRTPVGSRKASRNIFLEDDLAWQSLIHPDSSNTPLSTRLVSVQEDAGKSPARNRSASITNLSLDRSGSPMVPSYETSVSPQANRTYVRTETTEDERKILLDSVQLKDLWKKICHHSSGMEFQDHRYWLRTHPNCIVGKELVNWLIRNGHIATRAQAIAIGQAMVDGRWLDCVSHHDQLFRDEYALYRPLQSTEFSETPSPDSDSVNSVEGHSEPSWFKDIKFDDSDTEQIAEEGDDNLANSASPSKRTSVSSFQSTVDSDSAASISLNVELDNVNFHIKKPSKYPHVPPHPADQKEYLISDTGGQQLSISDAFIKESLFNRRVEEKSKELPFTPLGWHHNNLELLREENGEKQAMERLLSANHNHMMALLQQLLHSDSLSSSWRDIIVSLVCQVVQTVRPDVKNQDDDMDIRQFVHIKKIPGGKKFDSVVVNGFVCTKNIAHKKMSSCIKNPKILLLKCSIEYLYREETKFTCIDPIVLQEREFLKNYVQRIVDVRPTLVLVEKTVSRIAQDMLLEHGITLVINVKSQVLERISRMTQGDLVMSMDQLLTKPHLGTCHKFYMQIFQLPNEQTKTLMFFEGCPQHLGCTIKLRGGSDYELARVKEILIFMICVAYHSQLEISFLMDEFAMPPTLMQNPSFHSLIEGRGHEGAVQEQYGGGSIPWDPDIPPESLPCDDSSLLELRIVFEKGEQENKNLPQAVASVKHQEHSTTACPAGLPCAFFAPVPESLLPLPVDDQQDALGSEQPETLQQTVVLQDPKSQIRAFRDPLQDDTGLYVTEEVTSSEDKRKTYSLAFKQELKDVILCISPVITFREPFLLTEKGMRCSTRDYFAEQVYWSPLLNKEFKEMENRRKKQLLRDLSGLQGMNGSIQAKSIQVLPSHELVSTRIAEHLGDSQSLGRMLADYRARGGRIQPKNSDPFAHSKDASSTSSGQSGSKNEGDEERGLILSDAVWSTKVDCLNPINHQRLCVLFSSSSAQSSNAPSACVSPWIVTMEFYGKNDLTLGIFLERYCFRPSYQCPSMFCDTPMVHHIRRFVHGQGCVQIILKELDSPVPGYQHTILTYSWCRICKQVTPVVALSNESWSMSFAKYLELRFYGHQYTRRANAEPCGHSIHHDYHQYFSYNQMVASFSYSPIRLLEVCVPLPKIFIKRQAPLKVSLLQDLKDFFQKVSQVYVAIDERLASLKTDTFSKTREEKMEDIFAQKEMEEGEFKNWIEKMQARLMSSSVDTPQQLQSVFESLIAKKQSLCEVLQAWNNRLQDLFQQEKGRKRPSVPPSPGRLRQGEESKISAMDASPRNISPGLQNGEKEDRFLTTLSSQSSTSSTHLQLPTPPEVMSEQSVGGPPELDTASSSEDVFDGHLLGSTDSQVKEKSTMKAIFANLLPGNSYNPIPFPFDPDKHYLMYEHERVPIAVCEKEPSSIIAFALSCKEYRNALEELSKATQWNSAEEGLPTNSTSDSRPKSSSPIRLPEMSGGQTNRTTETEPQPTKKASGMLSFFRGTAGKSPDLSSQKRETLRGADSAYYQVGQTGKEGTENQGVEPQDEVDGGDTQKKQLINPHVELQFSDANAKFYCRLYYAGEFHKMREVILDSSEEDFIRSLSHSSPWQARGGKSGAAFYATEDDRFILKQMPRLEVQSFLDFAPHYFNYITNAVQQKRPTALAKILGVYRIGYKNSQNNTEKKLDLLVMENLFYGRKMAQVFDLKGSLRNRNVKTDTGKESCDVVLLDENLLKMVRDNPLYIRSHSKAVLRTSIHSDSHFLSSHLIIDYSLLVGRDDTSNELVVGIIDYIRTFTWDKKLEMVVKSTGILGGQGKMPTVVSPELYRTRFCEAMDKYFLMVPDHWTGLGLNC

Compound: Nc1ncnc2c1ncn2[C@@H]1O[C@H](COP(=O)(O)OP(=O)(O)NP(=O)(O)O)[C@@H](O)[C@H]1O [adenylyl imidodiphosphate]
Assay: NP40-soluble protein abundance relative to vehicle (solubility fold change) (ratio); higher = more soluble protein in presence of AMP-PNP
How it was run: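 Jurkat crude lysate prepared with a Dounce homogeniser was treated at eight concentrations spanning 0.1 to 10 mM, 10 min at room temperature then 3 min at 37 °C. Solubilisation with 0.8% NP40 and benzonase and ultracentrifugation preceded TMT labelling of the supernatant for LC-MS/MS. Fold change against the detergent-processed vehicle was determined per replicate from vsn-normalised intensities, across three independent experiments.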

Target	NP40-soluble protein abundance (concentration: 1mM)	NP40-soluble protein abundance (concentration: 2mM)	NP40-soluble protein abundance (concentration: 4mM)	NP40-soluble protein abundance (concentration: 6mM)	NP40-soluble protein abundance (concentration: 8mM)	NP40-soluble protein abundance (concentration: 10mM)
UniProt Q9UNL4 and related entries	0.976 ± 0.06	1 ± 0.044	1.03 ± 0.025	1.11 ± 0.033	1.13 ± 0.083	1.16 ± 0.049
UniProt Q9UJX5 and related entries	0.98 ± 0.011	0.963 ± 0.022	0.978 ± 0.032	0.9776 ± 0.0087	0.977 ± 0.024	0.98 ± 0.032
UniProt Q9Y3B4	0.976 ± 0.061	0.981 ± 0.076	0.993 ± 0.019	0.968 ± 0.016	1.05 ± 0.051	1.01 ± 0.06
PA2G4 (UniProt Q9UQ80)	0.994 ± 0.021	0.9819 ± 0.0068	0.9512 ± 0.0056	0.966 ± 0.016	0.935 ± 0.03	0.947 ± 0.038
GSTK1 (UniProt Q9Y2Q3)	0.993 ± 0.032	0.943 ± 0.018	1 ± 0.051	1.04 ± 0.081	1.09 ± 0.049	1.05 ± 0.062
UniProt Q9UKA9 and related entries	0.989 ± 0.022	0.98 ± 0.047	1.02 ± 0.04	1.04 ± 0.011	1.01 ± 0.016	1.03 ± 0.019
MAN1B1 (UniProt Q9UKM7)	0.979 ± 0.038	0.945 ± 0.053	1 ± 0.031	1.02 ± 0.045	1.08 ± 0.041	1.084 ± 0.0033
UniProt Q9Y2H1	1.02 ± 0.014	0.956 ± 0.09	0.993 ± 0.015	0.996 ± 0.016	0.997 ± 0.021	0.972 ± 0.038
NDUFA12 (UniProt Q9UI09)	0.978 ± 0.05	0.974 ± 0.051	0.987 ± 0.028	1.01 ± 0.037	1.05 ± 0.031	1.02 ± 0.019
UniProt Q9Y2Z2 and related entries	0.958 ± 0.026	0.941 ± 0.0087	0.937 ± 0.026	0.961 ± 0.011	0.959 ± 0.0056	0.951 ± 0.016
UniProt Q9UBU8 and related entries	1.1 ± 0.028	1.16 ± 0.049	1.16 ± 0.031	1.1 ± 0.023	1.12 ± 0.018	1.14 ± 0.022
AMDHD2 (UniProt Q9Y303)	0.968 ± 0.016	0.923 ± 0.048	0.949 ± 0.024	0.954 ± 0.024	0.948 ± 0.02	0.922 ± 0.033
C19orf53 (UniProt Q9UNZ5)	1.01 ± 0.026	1.06 ± 0.097	1.04 ± 0.043	1.09 ± 0.032	1.11 ± 0.023	1.18 ± 0.028
UniProt Q9UKT4 and related entries	0.995 ± 0.029	1.03 ± 0.031	1.03 ± 0.072	1 ± 0.061	1.02 ± 0.092	1.02 ± 0.11
UniProt Q9UK61 and related entries	1.02 ± 0.021	1.016 ± 0.008	1.04 ± 0.018	1.01 ± 0.067	1.02 ± 0.064	1.05 ± 0.075
UniProt Q9Y2Y0 and related entries	0.982 ± 0.014	0.972 ± 0.026	0.989 ± 0.036	0.988 ± 0.049	0.975 ± 0.032	0.953 ± 0.015
STUB1 (UniProt Q9UNE7)	0.989 ± 0.017	1.02 ± 0.014	0.977 ± 0.018	0.9527 ± 0.0059	0.938 ± 0.018	0.927 ± 0.019
UniProt Q9Y316 and related entries	0.997 ± 0.036	0.89 ± 0.13	0.953 ± 0.069	0.9298 ± 0.0038	0.949 ± 0.034	0.875 ± 0.039
TMED5 (UniProt Q9Y3A6)	0.995 ± 0.025	0.95 ± 0.032	0.944 ± 0.026	0.955 ± 0.035	0.949 ± 0.031	0.929 ± 0.015
ZNHIT2 (UniProt Q9UHR6)	0.9613 ± 0.0012	0.984 ± 0.044	1 ± 0.059	0.974 ± 0.037	0.986 ± 0.033	0.993 ± 0.037

Record cards, as listed above. Values in the order: NP40-soluble protein abundance (concentration: 1mM)	NP40-soluble protein abundance (concentration: 2mM)	NP40-soluble protein abundance (concentration: 4mM)	NP40-soluble protein abundance (concentration: 6mM)	NP40-soluble protein abundance (concentration: 8mM)	NP40-soluble protein abundance (concentration: 10mM)
UniProt Q9Y316 and related entries is entered as 0.997 ± 0.036	0.89 ± 0.13	0.953 ± 0.069	0.9298 ± 0.0038	0.949 ± 0.034	0.875 ± 0.039
UniProt Q9Y2H1 is entered as 1.02 ± 0.014	0.956 ± 0.09	0.993 ± 0.015	0.996 ± 0.016	0.997 ± 0.021	0.972 ± 0.038

(list continues)

Target	NP40-soluble protein abundance (concentration: 1mM)	NP40-soluble protein abundance (concentration: 2mM)	NP40-soluble protein abundance (concentration: 4mM)	NP40-soluble protein abundance (concentration: 6mM)	NP40-soluble protein abundance (concentration: 8mM)	NP40-soluble protein abundance (concentration: 10mM)
UniProt Q9UHC7 and related entries	1.06 ± 0.021	1.07 ± 0.083	1.05 ± 0.023	1.05 ± 0.013	1.02 ± 0.014	1.05 ± 0.029
GINS2 (UniProt Q9Y248)	0.9801 ± 0.008	0.992 ± 0.021	1.01 ± 0.023	0.988 ± 0.041	0.972 ± 0.037	0.969 ± 0.034
VDAC3 (UniProt Q9Y277)	0.964 ± 0.065	0.948 ± 0.037	0.988 ± 0.071	1.09 ± 0.14	1.12 ± 0.087	1.11 ± 0.071
MRTO4 (UniProt Q9UKD2)	1.05 ± 0.07	1.09 ± 0.09	1.1 ± 0.047	1.16 ± 0.11	1.17 ± 0.12	1.23 ± 0.14
MRPS2 (UniProt Q9Y399)	0.973 ± 0.061	0.945 ± 0.071	0.947 ± 0.1	1.01 ± 0.089	1 ± 0.072	0.987 ± 0.14
UniProt Q9UHA4	1.04 ± 0.022	1.01 ± 0.03	1 ± 0.016	0.96 ± 0.014	1.02 ± 0.015	0.999 ± 0.029
POLR3K (UniProt Q9Y2Y1)	0.995 ± 0.013	0.984 ± 0.0094	0.997 ± 0.019	0.9873 ± 0.0017	0.994 ± 0.014	0.9952 ± 0.007
PLAA (UniProt Q9Y263)	0.967 ± 0.021	0.949 ± 0.045	0.97 ± 0.017	0.964 ± 0.019	0.9613 ± 0.0081	0.942 ± 0.017
UniProt Q9UL15 and related entries	1.03 ± 0.035	1.03 ± 0.039	1.03 ± 0.013	1.02 ± 0.048	1.02 ± 0.03	1 ± 0.053
UniProt Q9UJD0	1 ± 0.015	1.01 ± 0.027	0.994 ± 0.035	1 ± 0.011	1.01 ± 0.023	1.01 ± 0.045
UniProt Q9UDY8 and related entries	0.995 ± 0.021	0.964 ± 0.045	0.979 ± 0.022	0.908 ± 0.014	0.945 ± 0.016	0.911 ± 0.017
MTMR6 (UniProt Q9Y217)	1 ± 0.013	0.985 ± 0.033	0.999 ± 0.048	0.964 ± 0.042	0.934 ± 0.03	0.942 ± 0.021
CYB5R1 (UniProt Q9UHQ9)	0.99 ± 0.05	0.899 ± 0.084	1 ± 0.048	0.992 ± 0.075	1.05 ± 0.063	0.972 ± 0.044
INPP5F (UniProt Q9Y2H2)	0.998 ± 0.03	1.03 ± 0.034	0.986 ± 0.022	0.992 ± 0.018	0.975 ± 0.043	0.994 ± 0.037
UniProt Q9ULK4 and related entries	0.978 ± 0.028	0.92 ± 0.072	0.954 ± 0.026	0.965 ± 0.028	0.99 ± 0.025	0.955 ± 0.053
UniProt Q9Y2X9 and related entries	1 ± 0.043	0.999 ± 0.033	0.973 ± 0.046	0.965 ± 0.022	0.947 ± 0.015	0.984 ± 0.026
UniProt Q9Y3D8 and related entries	1.01 ± 0.046	1.06 ± 0.019	1.02 ± 0.012	0.993 ± 0.017	1.01 ± 0.015	1.02 ± 0.02
UniProt Q9ULH0 and related entries	0.996 ± 0.012	1.01 ± 0.046	1.03 ± 0.039	0.989 ± 0.041	0.993 ± 0.016	0.995 ± 0.053
VPS28 (UniProt Q9UK41)	0.992 ± 0.064	1.02 ± 0.046	0.973 ± 0.032	0.928 ± 0.014	0.926 ± 0.017	0.853 ± 0.093
SMC3 (UniProt Q9UQE7)	1.02 ± 0.033	1.02 ± 0.015	1 ± 0.03	1.03 ± 0.034	1.01 ± 0.039	1.05 ± 0.062

Target	NP40-soluble protein abundance (concentration: 1mM)	NP40-soluble protein abundance (concentration: 2mM)	NP40-soluble protein abundance (concentration: 4mM)	NP40-soluble protein abundance (concentration: 6mM)	NP40-soluble protein abundance (concentration: 8mM)	NP40-soluble protein abundance (concentration: 10mM)
CFDP1 (UniProt Q9UEE9)	1.084 ± 0.0092	1.14 ± 0.11	1.04 ± 0.034	1.04 ± 0.045	0.96 ± 0.013	1.04 ± 0.084
UniProt Q9UKI8-5|Q9UKI8	0.984 ± 0.023	0.994 ± 0.028	1.01 ± 0.029	1.03 ± 0.036	1.01 ± 0.054	1.01 ± 0.056
XPO7 (UniProt Q9UIA9)	0.973 ± 0.036	0.932 ± 0.035	0.96 ± 0.019	0.958 ± 0.037	0.966 ± 0.015	0.939 ± 0.03
AASS (UniProt Q9UDR5)	0.9781 ± 0.0043	0.935 ± 0.098	0.969 ± 0.035	0.947 ± 0.021	0.979 ± 0.01	0.939 ± 0.027
RUVBL1 (UniProt Q9Y265)	1.02 ± 0.04	1 ± 0.078	1.01 ± 0.044	1.01 ± 0.081	1.02 ± 0.083	1.04 ± 0.12
UniProt Q9UIB8 and related entries	0.9756 ± 0.0055	0.982 ± 0.028	0.97 ± 0.024	0.9737 ± 0.0071	0.9696 ± 0.0036	0.978 ± 0.023
UniProt Q9ULE6	0.981 ± 0.025	0.96 ± 0.013	1.01 ± 0.02	0.959 ± 0.027	0.957 ± 0.016	0.944 ± 0.025
UniProt Q9UIG0 and related entries	1.04 ± 0.048	1.08 ± 0.055	1.11 ± 0.046	1.23 ± 0.074	1.3 ± 0.11	1.45 ± 0.16
UniProt Q9UJZ1 and related entries	0.971 ± 0.063	0.982 ± 0.056	0.902 ± 0.042	0.951 ± 0.09	0.889 ± 0.072	0.939 ± 0.11
UniProt Q9UKX3	0.9785 ± 0.0069	0.965 ± 0.017	0.979 ± 0.035	0.968 ± 0.1	0.946 ± 0.068	0.9784 ± 0.0034
UniProt Q9Y2I7	0.978 ± 0.018	0.9781 ± 0.0019	0.993 ± 0.037	0.974 ± 0.017	0.958 ± 0.019	0.976 ± 0.034
UniProt Q9UQ49 and related entries	1.01 ± 0.022	1.02 ± 0.021	1.02 ± 0.026	1.02 ± 0.031	1.01 ± 0.024	1.01 ± 0.017
UniProt Q9ULK6 and related entries	0.98 ± 0.057	1.1 ± 0.21	0.975 ± 0.038	0.995 ± 0.045	0.963 ± 0.011	1.05 ± 0.048
UniProt Q9UJU6 and related entries	1.017 ± 0.0077	1.04 ± 0.029	1.005 ± 0.0041	1.006 ± 0.0064	0.995 ± 0.043	0.983 ± 0.047
UniProt Q9UKV8	0.969 ± 0.018	0.97 ± 0.021	0.999 ± 0.02	1.008 ± 0.0047	0.992 ± 0.027	1 ± 0.015
UniProt Q9Y333	1.07 ± 0.068	1.31 ± 0.34	1.09 ± 0.067	1.18 ± 0.067	1.14 ± 0.028	1.26 ± 0.14
UniProt Q9Y250 and related entries	1.02 ± 0.019	1.03 ± 0.031	1.02 ± 0.041	0.954 ± 0.011	0.942 ± 0.032	0.991 ± 0.047
GPATCH8 (UniProt Q9UKJ3)	1.07 ± 0.051	1.1 ± 0.03	1.07 ± 0.05	1.03 ± 0.061	1.04 ± 0.038	1.06 ± 0.057
UniProt Q9ULT8 and related entries	0.994 ± 0.043	0.995 ± 0.027	1.001 ± 0.008	0.975 ± 0.03	0.992 ± 0.039	0.996 ± 0.011
MAPRE3 (UniProt Q9UPY8)	1.02 ± 0.023	1.06 ± 0.019	1.03 ± 0.02	1.02 ± 0.08	1.02 ± 0.065	1.02 ± 0.033
